# Laboratory results from the supplement of paper PMC11006884.
# Chains of the proteins cited; added tags and fusions are not shown. Lines headed by an entry give the natural chain unless they say otherwise; changes in a name come on top.
# UniProt P60891: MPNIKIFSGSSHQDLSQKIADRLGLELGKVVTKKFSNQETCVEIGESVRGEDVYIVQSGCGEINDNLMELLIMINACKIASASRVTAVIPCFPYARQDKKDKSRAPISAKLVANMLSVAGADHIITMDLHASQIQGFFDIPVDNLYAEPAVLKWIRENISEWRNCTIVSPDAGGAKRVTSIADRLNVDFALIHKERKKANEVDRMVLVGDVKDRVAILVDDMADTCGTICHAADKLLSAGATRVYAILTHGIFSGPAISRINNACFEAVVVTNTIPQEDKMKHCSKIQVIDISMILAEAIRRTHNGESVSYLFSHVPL
# UniProt P61081: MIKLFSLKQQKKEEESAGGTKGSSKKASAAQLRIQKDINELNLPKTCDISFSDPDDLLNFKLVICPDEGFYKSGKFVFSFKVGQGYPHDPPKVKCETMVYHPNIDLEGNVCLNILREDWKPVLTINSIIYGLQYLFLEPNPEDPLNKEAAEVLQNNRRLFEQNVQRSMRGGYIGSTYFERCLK
# UniProt P60842, whole entry, looked up: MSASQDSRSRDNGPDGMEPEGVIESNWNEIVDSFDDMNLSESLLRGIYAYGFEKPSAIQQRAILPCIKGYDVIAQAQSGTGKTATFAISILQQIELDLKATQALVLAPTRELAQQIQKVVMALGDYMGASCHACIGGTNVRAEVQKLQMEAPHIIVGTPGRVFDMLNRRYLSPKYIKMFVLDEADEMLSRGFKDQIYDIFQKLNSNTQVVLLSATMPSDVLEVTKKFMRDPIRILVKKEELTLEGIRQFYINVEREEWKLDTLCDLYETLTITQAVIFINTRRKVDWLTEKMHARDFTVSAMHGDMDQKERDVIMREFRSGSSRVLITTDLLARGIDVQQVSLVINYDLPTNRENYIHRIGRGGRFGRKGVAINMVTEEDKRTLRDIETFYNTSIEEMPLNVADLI
# UniProt P55060: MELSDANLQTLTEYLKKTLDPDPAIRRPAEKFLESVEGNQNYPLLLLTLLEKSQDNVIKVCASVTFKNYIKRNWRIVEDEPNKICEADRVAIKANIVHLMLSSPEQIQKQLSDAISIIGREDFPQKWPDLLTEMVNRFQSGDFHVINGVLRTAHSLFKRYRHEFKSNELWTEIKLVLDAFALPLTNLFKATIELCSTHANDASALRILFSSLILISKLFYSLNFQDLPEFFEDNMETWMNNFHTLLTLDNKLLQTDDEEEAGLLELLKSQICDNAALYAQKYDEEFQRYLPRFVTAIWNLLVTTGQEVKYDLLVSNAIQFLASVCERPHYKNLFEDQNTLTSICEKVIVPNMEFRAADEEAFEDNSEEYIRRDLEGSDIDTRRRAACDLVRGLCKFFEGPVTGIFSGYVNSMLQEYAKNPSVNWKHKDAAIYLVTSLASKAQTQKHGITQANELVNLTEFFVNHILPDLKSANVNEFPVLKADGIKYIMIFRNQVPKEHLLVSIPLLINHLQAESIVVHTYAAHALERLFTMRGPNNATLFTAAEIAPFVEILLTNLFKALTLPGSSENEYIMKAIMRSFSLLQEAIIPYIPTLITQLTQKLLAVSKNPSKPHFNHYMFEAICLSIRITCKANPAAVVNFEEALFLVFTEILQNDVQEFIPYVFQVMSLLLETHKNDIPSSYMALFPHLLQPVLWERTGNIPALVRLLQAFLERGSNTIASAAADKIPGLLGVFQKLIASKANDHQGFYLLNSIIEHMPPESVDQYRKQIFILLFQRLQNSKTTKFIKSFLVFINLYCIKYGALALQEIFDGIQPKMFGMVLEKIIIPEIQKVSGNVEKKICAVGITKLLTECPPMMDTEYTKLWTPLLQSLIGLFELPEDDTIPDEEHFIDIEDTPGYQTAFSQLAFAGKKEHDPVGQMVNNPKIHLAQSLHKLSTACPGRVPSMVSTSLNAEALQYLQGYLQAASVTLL
# UniProt P60604: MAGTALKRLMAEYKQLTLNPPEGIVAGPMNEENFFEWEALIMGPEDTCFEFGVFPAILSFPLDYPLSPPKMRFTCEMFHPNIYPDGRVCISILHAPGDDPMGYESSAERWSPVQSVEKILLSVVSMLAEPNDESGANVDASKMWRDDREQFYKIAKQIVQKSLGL
# UniProt P61289: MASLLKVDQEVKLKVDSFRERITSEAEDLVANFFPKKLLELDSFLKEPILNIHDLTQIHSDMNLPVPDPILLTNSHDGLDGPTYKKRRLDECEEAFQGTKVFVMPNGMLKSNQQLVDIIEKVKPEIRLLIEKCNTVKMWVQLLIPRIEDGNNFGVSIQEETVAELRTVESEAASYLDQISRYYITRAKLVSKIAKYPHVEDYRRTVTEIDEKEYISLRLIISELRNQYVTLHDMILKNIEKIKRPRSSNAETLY
# UniProt P54577: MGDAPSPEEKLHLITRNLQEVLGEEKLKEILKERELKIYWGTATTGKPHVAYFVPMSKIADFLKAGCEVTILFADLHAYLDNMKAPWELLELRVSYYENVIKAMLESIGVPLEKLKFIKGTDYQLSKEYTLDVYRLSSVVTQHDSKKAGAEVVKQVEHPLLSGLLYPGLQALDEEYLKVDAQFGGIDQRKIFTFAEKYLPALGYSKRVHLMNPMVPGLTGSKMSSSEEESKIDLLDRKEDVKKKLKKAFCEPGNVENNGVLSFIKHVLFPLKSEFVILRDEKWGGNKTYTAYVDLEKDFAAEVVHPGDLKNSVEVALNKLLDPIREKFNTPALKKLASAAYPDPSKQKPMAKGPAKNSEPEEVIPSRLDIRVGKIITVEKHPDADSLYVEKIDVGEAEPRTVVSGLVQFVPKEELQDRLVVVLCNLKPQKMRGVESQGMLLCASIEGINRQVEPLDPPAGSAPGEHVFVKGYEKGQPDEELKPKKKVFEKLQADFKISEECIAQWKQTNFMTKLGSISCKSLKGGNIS
# UniProt P54920: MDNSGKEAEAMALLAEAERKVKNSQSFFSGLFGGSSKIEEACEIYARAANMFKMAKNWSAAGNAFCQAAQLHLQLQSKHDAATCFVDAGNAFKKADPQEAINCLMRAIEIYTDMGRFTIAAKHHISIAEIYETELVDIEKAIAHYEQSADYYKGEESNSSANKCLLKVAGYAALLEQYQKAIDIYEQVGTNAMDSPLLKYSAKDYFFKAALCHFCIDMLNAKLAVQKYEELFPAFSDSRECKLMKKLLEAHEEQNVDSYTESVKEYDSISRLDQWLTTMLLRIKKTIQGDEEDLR
# UniProt P60174, whole entry, looked up: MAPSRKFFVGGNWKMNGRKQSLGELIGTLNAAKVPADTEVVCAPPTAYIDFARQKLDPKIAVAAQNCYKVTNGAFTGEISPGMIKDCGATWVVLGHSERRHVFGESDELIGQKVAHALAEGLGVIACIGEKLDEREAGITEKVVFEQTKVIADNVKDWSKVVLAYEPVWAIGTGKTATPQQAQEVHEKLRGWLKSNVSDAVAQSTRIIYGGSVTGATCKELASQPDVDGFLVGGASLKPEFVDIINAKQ
# UniProt P53384: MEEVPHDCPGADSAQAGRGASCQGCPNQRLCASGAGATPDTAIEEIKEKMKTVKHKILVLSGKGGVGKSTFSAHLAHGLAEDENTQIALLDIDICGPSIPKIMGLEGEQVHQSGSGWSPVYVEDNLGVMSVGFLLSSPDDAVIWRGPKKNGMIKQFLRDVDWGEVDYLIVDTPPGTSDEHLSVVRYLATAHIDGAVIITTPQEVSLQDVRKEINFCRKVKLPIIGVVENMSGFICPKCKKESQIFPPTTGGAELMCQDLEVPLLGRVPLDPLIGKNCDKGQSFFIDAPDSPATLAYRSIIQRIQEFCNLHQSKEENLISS
# UniProt P56589: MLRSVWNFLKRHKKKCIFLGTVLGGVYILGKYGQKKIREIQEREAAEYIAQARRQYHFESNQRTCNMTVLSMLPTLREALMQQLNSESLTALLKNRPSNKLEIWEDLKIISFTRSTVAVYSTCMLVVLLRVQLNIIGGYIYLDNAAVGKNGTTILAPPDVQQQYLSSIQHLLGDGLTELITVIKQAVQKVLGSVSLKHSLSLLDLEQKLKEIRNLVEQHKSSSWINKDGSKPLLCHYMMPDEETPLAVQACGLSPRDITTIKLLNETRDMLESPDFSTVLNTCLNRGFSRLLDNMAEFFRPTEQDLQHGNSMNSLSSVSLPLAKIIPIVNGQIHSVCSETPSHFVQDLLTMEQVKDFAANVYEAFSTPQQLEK
# UniProt P52701: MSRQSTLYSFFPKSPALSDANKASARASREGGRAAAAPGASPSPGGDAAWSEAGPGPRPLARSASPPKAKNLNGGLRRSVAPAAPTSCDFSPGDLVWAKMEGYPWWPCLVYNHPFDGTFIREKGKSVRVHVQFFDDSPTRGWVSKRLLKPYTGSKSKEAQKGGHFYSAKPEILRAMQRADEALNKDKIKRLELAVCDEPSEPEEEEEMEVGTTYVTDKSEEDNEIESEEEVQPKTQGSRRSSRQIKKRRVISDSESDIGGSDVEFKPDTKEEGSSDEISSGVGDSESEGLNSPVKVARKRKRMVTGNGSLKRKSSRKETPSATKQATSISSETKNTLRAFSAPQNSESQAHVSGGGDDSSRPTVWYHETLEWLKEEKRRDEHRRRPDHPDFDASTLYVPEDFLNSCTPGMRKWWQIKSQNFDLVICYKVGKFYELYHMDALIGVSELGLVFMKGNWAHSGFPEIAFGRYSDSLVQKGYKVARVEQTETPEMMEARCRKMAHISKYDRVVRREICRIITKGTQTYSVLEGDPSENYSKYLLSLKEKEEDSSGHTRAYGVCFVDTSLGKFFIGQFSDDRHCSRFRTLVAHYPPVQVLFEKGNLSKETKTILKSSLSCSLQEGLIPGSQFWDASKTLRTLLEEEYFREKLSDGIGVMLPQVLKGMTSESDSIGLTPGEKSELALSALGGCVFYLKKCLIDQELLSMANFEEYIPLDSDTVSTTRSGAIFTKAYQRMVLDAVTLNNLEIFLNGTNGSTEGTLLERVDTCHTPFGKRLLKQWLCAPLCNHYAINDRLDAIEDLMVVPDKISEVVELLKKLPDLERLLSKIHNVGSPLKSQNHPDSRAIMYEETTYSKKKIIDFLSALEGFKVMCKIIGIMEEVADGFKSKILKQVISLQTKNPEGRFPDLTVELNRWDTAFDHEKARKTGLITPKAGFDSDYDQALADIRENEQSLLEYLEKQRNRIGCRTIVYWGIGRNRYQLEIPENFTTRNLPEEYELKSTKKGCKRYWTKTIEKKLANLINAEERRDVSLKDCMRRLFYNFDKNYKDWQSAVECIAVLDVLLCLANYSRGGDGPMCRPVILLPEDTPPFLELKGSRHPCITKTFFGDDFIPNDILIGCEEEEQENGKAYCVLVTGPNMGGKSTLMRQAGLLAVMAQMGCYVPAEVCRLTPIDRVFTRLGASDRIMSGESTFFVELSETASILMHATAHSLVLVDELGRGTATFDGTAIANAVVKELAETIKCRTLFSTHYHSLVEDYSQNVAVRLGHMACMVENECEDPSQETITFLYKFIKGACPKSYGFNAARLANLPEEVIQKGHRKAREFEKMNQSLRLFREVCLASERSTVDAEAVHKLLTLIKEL
# UniProt P55199: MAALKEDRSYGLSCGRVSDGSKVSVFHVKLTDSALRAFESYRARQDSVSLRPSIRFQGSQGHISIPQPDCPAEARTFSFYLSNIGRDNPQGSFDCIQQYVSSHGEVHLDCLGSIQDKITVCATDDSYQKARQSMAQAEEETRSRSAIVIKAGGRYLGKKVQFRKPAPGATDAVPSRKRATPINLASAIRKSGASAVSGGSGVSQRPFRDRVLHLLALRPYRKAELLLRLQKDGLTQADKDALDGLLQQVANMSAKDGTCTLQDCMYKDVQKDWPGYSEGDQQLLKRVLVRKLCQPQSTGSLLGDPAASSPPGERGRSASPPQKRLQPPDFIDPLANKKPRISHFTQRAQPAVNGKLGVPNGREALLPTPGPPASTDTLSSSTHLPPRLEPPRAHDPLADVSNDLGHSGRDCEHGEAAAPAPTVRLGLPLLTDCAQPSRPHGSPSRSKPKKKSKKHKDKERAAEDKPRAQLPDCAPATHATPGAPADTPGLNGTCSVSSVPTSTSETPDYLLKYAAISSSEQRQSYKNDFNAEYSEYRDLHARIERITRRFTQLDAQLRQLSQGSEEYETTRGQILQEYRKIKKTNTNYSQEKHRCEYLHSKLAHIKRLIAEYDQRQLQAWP
# UniProt P52294, whole entry, looked up: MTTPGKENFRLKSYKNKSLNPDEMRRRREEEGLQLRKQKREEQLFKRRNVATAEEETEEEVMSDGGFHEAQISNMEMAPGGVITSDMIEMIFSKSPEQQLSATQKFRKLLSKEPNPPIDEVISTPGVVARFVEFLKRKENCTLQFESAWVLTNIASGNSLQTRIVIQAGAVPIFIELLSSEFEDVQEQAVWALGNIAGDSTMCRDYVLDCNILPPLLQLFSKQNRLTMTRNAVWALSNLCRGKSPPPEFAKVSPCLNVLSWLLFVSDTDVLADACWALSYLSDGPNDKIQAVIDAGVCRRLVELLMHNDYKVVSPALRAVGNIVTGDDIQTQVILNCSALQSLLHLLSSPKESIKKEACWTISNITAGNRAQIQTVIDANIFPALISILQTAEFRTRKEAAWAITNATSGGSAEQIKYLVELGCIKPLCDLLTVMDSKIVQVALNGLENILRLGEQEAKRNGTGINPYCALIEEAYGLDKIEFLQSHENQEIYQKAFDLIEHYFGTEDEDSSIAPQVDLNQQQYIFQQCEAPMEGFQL
# Only a part is listed here, and it is no random draw.
# Compound: COC(=O)C#Cc1ccccc1 [methyl 3-phenylpropiolate]
# Assay: log2 ratio of iodoacetamide-alkyne labeling of the cysteine site, DMSO over compound (competition); higher = stronger covalent engagement of the cysteine by the compound, active = 1 or more
# Conditions: 500 µM; treatment time 1 h; system: HEK293T cell lysate
# How it was run: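 HEK293T lysate (2 mg/mL) was treated with DMSO or electrophile (500 µM, 1 h, ambient temperature), then iodoacetamide alkyne (1 h), clicked to sCIP-TMT reagents, pooled, trypsin-digested overnight at 37 °C, streptavidin-enriched and acid-eluted. Peptides were run on Orbitrap Eclipse LC-MS/MS with FAIMS and quantified in FragPipe. The log2 competition ratio per cysteine is mean control-channel over mean compound-channel reporter intensity. Duplicate channels and three replicates were used, and cysteines quantified in only one replicate were excluded.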
row,Target,log2 ratio of iodoacetamide-alkyne labeling
1,UniProt P60891_C41,inactive: -0.0365
2,PSMD4 C58 (UniProt P55036),inactive: -0.00877
3,UniProt P61081_C65,inactive: -0.0454
4,CTBP2 C44 (UniProt P56545),inactive: 0.023
5,SEC13 C245 (UniProt P55735),inactive: -0.125
6,UniProt P60842_C134,inactive: 0.0481
7,CSE1L C85 (UniProt P55060),inactive: 0.0448
8,UniProt P60604_C89,inactive: 0.246
9,METAP1 C14 (UniProt P53582),inactive: 0.325
10,HNRNPA3 C196 (UniProt P51991),inactive: -0.0216
11,ACTR3 C235 (UniProt P61158),active: 1.28
12,UniProt P61221_C88,inactive: 0.142
13,UniProt P61289_C92,inactive: 0.491
14,UniProt P60842_C66,inactive: -0.0149
15,HNRNPH2 C34 (UniProt P55795),inactive: 0.0589
16,CSE1L C939 (UniProt P55060),inactive: 0.518
17,YARS C250 (UniProt P54577),inactive: 0.0441
18,UniProt P60866_C70,inactive: 0.806
19,NAP1L1 C258 (UniProt P55209),inactive: 0.126

# Fetched one by one from above (3):
row,Target,log2 ratio of iodoacetamide-alkyne labeling
16,CSE1L C939 (UniProt P55060),inactive: 0.518
4,CTBP2 C44 (UniProt P56545),inactive: 0.023
13,UniProt P61289_C92,inactive: 0.491

# (listing goes on)

row,Target,log2 ratio of iodoacetamide-alkyne labeling
1,CSE1L C272 (UniProt P55060),inactive: 0.133
2,NAPA C103 (UniProt P54920),inactive: -0.122
3,HK2 C158 (UniProt P52789),inactive: 0.246
4,ALDH18A1 C88 (UniProt P54886),inactive: 0.288
5,COPB1 C284 (UniProt P53618),inactive: 0.137
6,TPI1 C164 (UniProt P60174),inactive: -0.0538
7,NUBP1 C31 (UniProt P53384),inactive: 0.626
8,UniProt P55196_C1742,inactive: 0.821
9,UniProt P51812_C229,inactive: 0.751
10,CTBP2 C60 (UniProt P56545),inactive: 0.0719
11,PEX3 C65 (UniProt P56589),inactive: 0.385
12,MSH6 C88 (UniProt P52701),inactive: 0.154
13,SUCLG1 C172 (UniProt P53597),active: 1.72
14,PMS2 C798 (UniProt P54278),inactive: -0.143
15,ELL C494 (UniProt P55199),inactive: 0.872
16,KPNA1 C337 (UniProt P52294),inactive: 0.228
17,UniProt P55072_C415,inactive: -0.0571
18,MSH6 C1158 (UniProt P52701),inactive: -0.0115
